Test results reported in PMC11543946.
No constants are given. Whether binding was seen depends on the method and setting. Binding seen in cells or lysates may run through a third protein. These calls come from enrichment with a bait or labelling near it, and not all partners need be listed. A no says only that the protein was not detected with the bait. Tags and fused reporters may be left off the sequences shown.

Protein sequences, listed by entry. Tags and fused reporters are not part of them.
UniProt Q8N6T7: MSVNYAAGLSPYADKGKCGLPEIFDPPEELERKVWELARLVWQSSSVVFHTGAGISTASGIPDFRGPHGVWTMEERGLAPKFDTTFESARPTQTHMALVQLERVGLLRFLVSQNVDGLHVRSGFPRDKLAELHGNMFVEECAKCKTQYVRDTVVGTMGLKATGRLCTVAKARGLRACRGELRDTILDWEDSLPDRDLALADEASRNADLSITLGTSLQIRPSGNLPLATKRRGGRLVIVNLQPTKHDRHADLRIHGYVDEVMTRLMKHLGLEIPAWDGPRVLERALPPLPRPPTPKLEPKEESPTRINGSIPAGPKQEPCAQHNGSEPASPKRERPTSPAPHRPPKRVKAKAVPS

Biological target: T1, Flag-REST, overexpressed in HEK293T cells (UniProt Q13127)
T1 sequence: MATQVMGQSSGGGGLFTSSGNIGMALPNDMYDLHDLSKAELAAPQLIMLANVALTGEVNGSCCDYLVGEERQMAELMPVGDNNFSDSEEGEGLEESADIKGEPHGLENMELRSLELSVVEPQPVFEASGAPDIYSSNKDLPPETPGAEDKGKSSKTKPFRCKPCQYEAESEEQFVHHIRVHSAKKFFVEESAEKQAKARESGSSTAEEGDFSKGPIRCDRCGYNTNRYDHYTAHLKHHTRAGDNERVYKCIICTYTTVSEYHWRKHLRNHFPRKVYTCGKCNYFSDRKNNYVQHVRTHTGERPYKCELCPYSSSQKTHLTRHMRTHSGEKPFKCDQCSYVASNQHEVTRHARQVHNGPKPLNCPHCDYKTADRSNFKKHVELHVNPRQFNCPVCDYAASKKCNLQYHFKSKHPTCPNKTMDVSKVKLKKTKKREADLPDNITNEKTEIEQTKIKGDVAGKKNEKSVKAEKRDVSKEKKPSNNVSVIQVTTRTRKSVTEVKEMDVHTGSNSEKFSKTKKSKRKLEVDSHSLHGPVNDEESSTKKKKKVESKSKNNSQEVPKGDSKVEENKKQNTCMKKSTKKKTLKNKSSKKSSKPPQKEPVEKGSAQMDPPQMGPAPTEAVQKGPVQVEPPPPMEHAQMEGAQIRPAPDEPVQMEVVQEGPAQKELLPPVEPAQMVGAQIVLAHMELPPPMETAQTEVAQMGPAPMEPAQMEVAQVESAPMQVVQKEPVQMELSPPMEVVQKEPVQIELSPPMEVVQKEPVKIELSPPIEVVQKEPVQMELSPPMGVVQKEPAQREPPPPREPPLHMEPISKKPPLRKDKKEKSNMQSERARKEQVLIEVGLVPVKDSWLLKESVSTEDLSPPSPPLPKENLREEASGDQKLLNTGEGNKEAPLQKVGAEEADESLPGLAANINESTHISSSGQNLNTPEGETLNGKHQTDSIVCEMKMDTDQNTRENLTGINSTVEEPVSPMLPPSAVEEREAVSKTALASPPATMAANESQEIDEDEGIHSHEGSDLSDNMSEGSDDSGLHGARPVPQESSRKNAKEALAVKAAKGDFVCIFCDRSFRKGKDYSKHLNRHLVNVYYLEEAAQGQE
Assay: affinity purification with mass spectrometry; Flag-REST overexpressed in WT and SIRT6 KO HEK293T cells; immunoprecipitated on Flag beads; samples separated by SDS gel electrophoresis; triplicates; empty vector as control

binding: no binding
Substance: SIRT6 (from UniProt Q8N6T7 1-355) (enzyme)
